In paper PMC9408895 one finds binding data, which are given here for 2 molecules.

In the assay the target is senescence-suppressed protein phosphatase SSPP (His-SSPP) (Arabidopsis). Description: pull-down; His-SSPP bound to Ni Sepharose 6 Fast Flow beads; approximately 10 ug GST-AtSARK-CD with or without mutation added; at least 2 h at 4 °C; binding buffer 1.5 M NaCl, 10.1 mM Na2HPO4, 1.8 mM KH2PO4, 20 mM imidazole; eluted with 500 mM imidazole; anti-GST blot; both purified.

These are yes or no findings as the source states them, for the method shown. A result given as binding can be weak or reduced; the word gives no strength. Tags and fused reporters may be left off the sequences shown.

B1: GST-AtSARK-CD Y473E (domain or fragment, UniProt Q8VYT3 260-648)
chain: CWYRKKQRRLLILNLNDKQEEGLQGLGNLRSFTFRELHVYTDGFSSKNILGAGGFGNVYRGKLGDGTMVAVKRLKDINGTSGDSQFRMELEMISLAVHKNLLRLIGYCATSGERLLVYPYMPNGSVASKLKSKPALDWNMRKRIAIGAARGLLYLHEQCDPKIIHRDVKAANILLDECFEAVVGDFGLAKLLNHADSHVTTAVRGTVGHIAPEELSTGQSSEKTDVFGFGILLLELITGLRALEFGKTVSQKGAMLEWVRKLHEEMKVEELLDRELGTNYDKIEVGEMLQVALLCTQYLPAHRPKMSEVVLMLEGDGLAERWAASHNHSHFYHANISFKTISSLSTTSVSRLDAHCNDPTYQMFGSSAFDDDDDHQPLDSFAMELSGPR
With B1, the binding result is reported as “binds”.

B2: GST-AtSARK-CD Y473F (domain or fragment, UniProt Q8VYT3 260-648)
chain: CWYRKKQRRLLILNLNDKQEEGLQGLGNLRSFTFRELHVYTDGFSSKNILGAGGFGNVYRGKLGDGTMVAVKRLKDINGTSGDSQFRMELEMISLAVHKNLLRLIGYCATSGERLLVYPYMPNGSVASKLKSKPALDWNMRKRIAIGAARGLLYLHEQCDPKIIHRDVKAANILLDECFEAVVGDFGLAKLLNHADSHVTTAVRGTVGHIAPEFLSTGQSSEKTDVFGFGILLLELITGLRALEFGKTVSQKGAMLEWVRKLHEEMKVEELLDRELGTNYDKIEVGEMLQVALLCTQYLPAHRPKMSEVVLMLEGDGLAERWAASHNHSHFYHANISFKTISSLSTTSVSRLDAHCNDPTYQMFGSSAFDDDDDHQPLDSFAMELSGPR
With B2, the binding result is given as “binds”.
